This assay concerns the target T1, Tat-GFP fusion protein (HIV-1 transactivator of transcription fused to green fluorescent protein) (HIV-1), P04608.
T1 chain: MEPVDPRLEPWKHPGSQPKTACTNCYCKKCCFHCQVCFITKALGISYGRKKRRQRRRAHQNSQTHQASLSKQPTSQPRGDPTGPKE
Nature of the assay: FRET or BRET; homo-FRET: two-photon polarization anisotropy (r) microscopy of GFP or YFP fusion proteins in single immobilised living cells; polarizing beam splitter and two-detector system. Conditions: remark: other sources report otherwise.

No constants are given. Whether binding was seen depends on the method and setting. Binding seen in cells or lysates may run through a third protein. Tags and fused reporters may be left off the sequences shown.

B1: Tat-GFP fusion protein (HIV-1 transactivator of transcription fused to green fluorescent protein), P04608 1-86 (protein)
chain: T1 chain
For the molecule B1, the binding entry is on record as “no binding”.

Source of the values: publication PMC1717016.
